# “And” between values parts separate entries of the source, which are not always exact repeats. Equal values may be shown once. This is one part of the list. For some of these results: The source does not settle which construct or isoform was used.
# Experiments:
# Assay in all cases: protein microarray (ProtoArray v5.0), streptavidin-Alexa Fluor 647
# Conditions in all cases: 3'-biotin; 20 mM Tris (pH 7.5), 5 mM MgCl2, 100 mM KCl, 0.1% Tween-20, A/T-rich and random oligonucleotide blockers; temperature not stated; high values mean tight binding
# [1] = test system: UCHL3 (human)
# [2] = test system: UCHL5 (human)
# [3] = target: T1, UCK1 (UniProt Q9HA47)
# T1 sequence: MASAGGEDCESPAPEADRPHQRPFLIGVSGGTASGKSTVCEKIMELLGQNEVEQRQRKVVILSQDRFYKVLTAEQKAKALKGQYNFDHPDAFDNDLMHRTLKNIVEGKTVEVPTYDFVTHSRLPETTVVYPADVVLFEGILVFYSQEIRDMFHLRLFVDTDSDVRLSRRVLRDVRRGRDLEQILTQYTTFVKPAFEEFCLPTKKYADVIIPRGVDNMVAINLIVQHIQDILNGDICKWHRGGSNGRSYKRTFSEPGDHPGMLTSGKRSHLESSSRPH
# [4] = test system: UCK2 (human)
# [5] = test system: UEVLD (human)
# [6] = test system: UGP2 (human)
# [7] = test system: UGT1A10 (human)
# [8] = test system: ULK4 (human)
# [9] = test system: UMPS (human)
# [10] = test system: UPF0417 protein FAM163A (human)
sequence,measurement,setting,value
GGGAGGCTGAGGCAGG [G4-1 biotinylated (PQS2)],binding signal,[1],-0.353 z-score
same,binding signal,[2],-0.36 z-score and -0.347 z-score
same,binding signal,[3],-0.309 z-score
same,binding signal,[4],-0.328 z-score
same,binding signal,[5],-0.303 z-score
same,binding signal,[6],-0.349 z-score and -0.325 z-score
same,binding signal,[7],-0.28 z-score
same,binding signal,[8],-0.336 z-score
same,binding signal,[9],-0.335 z-score
same,binding signal,[10],-0.349 z-score
